Experimental findings from the supplement of paper PMC12819154, “High-throughput peptide-centric local stability assay extends protein–ligand identification to membrane proteins, tissues and bacteria” (Nature Structural & Molecular Biology, 2025) are described below.

Amino acid sequences for entries named in this document (tags omitted). A change or cut given only in a name is not applied to a line headed by its entry.
UniProt O95935: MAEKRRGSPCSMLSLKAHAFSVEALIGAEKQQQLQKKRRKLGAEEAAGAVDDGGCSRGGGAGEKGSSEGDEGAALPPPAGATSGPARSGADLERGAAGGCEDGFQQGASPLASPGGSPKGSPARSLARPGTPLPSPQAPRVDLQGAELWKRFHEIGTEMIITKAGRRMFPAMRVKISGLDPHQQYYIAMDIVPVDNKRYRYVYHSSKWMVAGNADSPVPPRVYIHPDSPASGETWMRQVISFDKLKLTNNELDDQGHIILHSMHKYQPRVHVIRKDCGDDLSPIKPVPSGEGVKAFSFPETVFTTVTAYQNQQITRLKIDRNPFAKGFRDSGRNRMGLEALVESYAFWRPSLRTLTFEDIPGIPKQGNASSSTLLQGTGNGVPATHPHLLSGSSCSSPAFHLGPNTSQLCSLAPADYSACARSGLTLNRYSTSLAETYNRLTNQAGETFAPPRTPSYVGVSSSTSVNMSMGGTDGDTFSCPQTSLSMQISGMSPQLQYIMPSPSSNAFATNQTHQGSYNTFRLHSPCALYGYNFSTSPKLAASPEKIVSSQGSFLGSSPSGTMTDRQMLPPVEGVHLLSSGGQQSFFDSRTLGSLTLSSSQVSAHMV
UniProt O95619, whole entry: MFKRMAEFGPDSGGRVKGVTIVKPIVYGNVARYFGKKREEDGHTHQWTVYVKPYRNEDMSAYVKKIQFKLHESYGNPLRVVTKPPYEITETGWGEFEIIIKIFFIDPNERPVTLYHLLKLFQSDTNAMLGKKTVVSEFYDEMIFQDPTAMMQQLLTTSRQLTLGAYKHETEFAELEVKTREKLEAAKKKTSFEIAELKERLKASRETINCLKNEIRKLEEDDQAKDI
UniProt O95568: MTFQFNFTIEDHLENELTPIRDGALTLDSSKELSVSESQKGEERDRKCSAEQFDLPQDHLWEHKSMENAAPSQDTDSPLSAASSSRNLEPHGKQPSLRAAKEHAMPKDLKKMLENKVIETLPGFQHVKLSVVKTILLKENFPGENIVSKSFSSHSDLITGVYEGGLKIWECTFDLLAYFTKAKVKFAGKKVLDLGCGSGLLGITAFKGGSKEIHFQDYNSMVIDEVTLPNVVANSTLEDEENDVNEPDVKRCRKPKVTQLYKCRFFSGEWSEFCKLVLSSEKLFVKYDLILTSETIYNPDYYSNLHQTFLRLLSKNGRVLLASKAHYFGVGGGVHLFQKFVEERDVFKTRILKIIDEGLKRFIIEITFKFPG
UniProt O95900: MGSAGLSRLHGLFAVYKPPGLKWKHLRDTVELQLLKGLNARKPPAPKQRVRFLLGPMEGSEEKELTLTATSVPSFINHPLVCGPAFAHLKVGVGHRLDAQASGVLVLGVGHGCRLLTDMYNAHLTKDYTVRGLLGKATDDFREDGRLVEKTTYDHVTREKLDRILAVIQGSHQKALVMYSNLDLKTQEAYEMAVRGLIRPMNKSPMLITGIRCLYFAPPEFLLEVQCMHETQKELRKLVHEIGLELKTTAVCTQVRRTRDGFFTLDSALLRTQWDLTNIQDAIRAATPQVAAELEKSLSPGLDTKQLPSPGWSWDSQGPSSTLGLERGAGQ
UniProt O75934: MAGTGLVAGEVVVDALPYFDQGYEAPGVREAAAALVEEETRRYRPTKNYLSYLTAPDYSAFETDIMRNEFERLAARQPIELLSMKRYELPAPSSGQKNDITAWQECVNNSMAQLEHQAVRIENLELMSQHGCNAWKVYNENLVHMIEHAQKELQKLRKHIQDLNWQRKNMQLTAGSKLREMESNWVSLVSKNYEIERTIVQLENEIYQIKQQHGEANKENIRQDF
UniProt O95630, whole entry: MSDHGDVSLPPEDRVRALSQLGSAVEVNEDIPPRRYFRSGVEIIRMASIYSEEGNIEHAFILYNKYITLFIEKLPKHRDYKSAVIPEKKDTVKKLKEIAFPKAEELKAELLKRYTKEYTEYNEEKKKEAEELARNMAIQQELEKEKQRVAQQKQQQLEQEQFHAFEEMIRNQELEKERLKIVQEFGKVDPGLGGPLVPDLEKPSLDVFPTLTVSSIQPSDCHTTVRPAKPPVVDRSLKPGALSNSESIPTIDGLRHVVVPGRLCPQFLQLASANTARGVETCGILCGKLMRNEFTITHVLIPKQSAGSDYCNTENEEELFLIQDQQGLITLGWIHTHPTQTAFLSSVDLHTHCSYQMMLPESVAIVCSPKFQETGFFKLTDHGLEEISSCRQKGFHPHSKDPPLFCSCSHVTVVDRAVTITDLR
UniProt O95260: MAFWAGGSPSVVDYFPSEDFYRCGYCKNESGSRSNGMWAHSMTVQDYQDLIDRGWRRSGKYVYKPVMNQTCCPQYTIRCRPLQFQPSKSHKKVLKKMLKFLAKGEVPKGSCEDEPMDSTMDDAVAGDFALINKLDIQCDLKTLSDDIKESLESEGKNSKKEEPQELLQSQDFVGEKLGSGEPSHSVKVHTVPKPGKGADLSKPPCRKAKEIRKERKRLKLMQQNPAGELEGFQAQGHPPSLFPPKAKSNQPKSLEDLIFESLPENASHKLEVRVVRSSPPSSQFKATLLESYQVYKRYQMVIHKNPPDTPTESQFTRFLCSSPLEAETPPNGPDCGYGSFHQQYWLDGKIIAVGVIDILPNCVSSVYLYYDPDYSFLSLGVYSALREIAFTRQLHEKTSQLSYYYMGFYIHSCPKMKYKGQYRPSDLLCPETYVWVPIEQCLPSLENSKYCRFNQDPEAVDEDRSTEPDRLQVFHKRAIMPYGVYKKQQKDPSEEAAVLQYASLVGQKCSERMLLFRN
UniProt O95819: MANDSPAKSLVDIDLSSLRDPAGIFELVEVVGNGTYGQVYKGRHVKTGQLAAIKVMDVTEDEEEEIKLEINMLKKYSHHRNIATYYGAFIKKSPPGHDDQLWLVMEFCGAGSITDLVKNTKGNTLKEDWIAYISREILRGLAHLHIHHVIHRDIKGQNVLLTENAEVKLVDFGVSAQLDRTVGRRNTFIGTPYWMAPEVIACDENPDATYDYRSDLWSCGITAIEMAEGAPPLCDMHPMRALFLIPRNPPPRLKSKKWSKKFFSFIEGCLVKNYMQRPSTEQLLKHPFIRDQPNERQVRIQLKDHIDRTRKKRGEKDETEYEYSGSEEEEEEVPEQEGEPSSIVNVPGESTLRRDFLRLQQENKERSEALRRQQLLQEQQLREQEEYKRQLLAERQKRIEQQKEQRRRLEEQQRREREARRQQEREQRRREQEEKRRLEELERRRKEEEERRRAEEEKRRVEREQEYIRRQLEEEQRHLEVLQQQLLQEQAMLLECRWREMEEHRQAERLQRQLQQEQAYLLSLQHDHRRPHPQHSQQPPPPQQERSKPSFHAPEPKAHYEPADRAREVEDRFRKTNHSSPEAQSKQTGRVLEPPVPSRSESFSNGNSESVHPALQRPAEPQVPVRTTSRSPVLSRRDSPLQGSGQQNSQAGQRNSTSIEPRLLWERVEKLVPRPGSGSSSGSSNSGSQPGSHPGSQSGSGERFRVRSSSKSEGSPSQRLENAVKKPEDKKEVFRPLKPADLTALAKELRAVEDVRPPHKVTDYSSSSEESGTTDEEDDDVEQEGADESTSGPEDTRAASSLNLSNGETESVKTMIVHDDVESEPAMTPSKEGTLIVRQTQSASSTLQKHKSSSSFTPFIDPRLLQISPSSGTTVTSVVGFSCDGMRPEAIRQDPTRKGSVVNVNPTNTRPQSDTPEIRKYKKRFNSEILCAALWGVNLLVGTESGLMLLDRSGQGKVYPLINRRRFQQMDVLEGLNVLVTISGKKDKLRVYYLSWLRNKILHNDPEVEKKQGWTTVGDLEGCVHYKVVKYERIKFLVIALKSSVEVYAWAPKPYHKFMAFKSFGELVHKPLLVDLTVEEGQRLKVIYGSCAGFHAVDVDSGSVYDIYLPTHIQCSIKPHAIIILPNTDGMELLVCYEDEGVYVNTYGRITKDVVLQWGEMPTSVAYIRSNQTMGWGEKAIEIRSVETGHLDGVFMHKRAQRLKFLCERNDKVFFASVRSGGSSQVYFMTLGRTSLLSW

This is one part of the list. Most entries show no effect beyond the scatter of the controls.

Compound in this experiment: CN[C@@H]1C[C@H]2O[C@@](C)([C@@H]1OC)n1c3ccccc3c3c4c(c5c6ccccc6n2c5c31)C(=O)NC4 [staurosporine]
Description: log2 fold change of tryptic peptide abundance, ligand vs vehicle (limited proteolysis) (log2 ratio); higher = more trypsin-susceptible (destabilized). To be noted: ligand concentration: 20 uM; sample: K562 cleared lysate; digestion: 4 min, 22 C (HT-PELSA RT4min, Orbitrap Astral).
With “UniProt O95935 (peptide sequence: YSTSLAETYNR, peptide start residue: 430)”, the log2 fold change is 0.0853.

On to “YEATS4 (peptide sequence: GVTIVKPIVYGNVAR, peptide start residue: 18) (UniProt O95619)”, for which the log2 fold change is -0.18.

On to “UniProt O95568 (peptide sequence: ELSVSESQK, peptide start residue: 32)”, for which the log2 fold change was -0.298.

For the target “TRUB2 (peptide sequence: SPMLITGIR, peptide start residue: 204) (UniProt O95900)”, the log2 fold change is -0.445.

As to “UniProt O75934 (peptide sequence: QQHGEANKENIRQDF, peptide start residue: 211)”, the log2 fold change worked out at 0.215.

For “STAMBP (peptide sequence: KKEAEELAR, peptide start residue: 126) (UniProt O95630)”, the log2 fold change was found to be 0.345.

As to “ATE1 (peptide sequence: GADLSKPPCR, peptide start residue: 197) (UniProt O95260)”, the log2 fold change is 0.285.

Regarding “MAP4K4 (peptide sequence: NYMQRPSTEQLLK, peptide start residue: 273) (UniProt O95819)”, the log2 fold change is -0.204.
